For at least one compound, name, drawing or mass did not settle the structure. Some entries share one result that the patent states for a list of compounds. Non-standard residues stand in square brackets, D forms with d. Residues, ends and D or L forms follow the SMILES beside them.
Target: T1, rat GalR3 receptor (Rattus norvegicus, UniProt O88626)
T1 construct: expressed in transfected cells; host or cells: COS-7 cells (ATCC CRL 1651), transient electroporation with pCR 3.1; membrane preparation
T1 sequence (O88626 1-370 P53Q/R54G/T57Q/P127Q/R137C/A150G/W176L/A183R/T188A/F210L/C272I/R311C): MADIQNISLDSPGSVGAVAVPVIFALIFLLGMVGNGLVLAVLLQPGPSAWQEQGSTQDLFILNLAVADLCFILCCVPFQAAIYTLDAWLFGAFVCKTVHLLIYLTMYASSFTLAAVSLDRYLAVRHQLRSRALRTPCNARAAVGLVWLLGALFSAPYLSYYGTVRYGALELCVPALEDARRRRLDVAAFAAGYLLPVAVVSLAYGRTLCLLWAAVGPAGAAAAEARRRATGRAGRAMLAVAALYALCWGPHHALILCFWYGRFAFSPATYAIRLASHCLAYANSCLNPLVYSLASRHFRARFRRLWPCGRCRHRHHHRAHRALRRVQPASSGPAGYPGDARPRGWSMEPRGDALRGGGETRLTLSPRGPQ
Test: 125I-porcine galanin competition binding to membranes of COS-7 cells transfected with rat GalR3 receptor
Conditions: for Ki: inhibition of binding of 0.3 nM 125I-porcine galanin, 20 μg membrane protein, room temperature 1 hour, Cheng and Prusoff, FIG. 2
Description: Transfection was carried out as follows. Confluent COS-7 cells (ATCC CRL 1651) grown in DMEVI supplemented with 10% fetal calfserum (FCS) with 100 units/ml penicillin and 100 μg/ml streptomycin were split 1:6 into 150 mm dishes (Nunc) three days prior to transfection. On the day of transfection, the cells were approximately 90% confluent and trypsinized off plates and washed two times with PBS without Mg^++ and Ca^++. The cells were resuspended in Krebs Ringer's buffer at a density of approximately 1.2×10^7 cells/ml. Twenty μg of vector pCR® 3.1 containing rat GalR3 cDNA was diluted in Krebs Ringer's buffer (100 μl final volume), mixed with 0.7 ml of the COS-7 cells in a 0.4 cm electroporation cuvettes (Bio-rad, Hercules, Calif.) then chilled on ice for 5 min. The cells were electroporated at 960 μF×260 volts (time constant approximately 18) followed by incubation on ice for 10 min. The cells were incubated in DMEM with 10% FCS in a 150-mm plate.
Receptor membranes were prepared as follows. COS-7 cells transfected as described above with vector pCR® 3.1 containing cDNA encoding the rat GalR3 receptor were incubated in DMEM with 10% FCS in 150 mm plates for 3 days in a humidified 5% CO2 incubator, after which the medium was removed and the cells were washed three times with phosphate buffered saline (PBS).
To each plate, 5 ml of 5 mM Hepes buffer (pH 7.4), 0.1 mM PMSF, and 0.1 mg/ml bacitracin were added and incubated at room temperature for 15 minutes. The cells were scraped from the plates and centrifuged at 13,000×g for 15 minutes at 4° C. […] Protein concentrations were determined using a […] (bicinchoninic acid) method (Pierce, Rockford, Ill.).
Binding of ^125I-porcine-galanin to the membrane preparations was performed in a buffer containing 25 mM Tris-Cl (pH7.4), 1% bovine serim albumin (w/v), 0.1% bacitracin, 2 μg/ml leupeptin and 10 mM MgCl2. […] All data were analyzed using non-linear regression software (Prism, GraphPad, San Diego, Calif.), and the Ki was calculated using the method of Cheng and Prusoff [Biochem. Pharmacol. 22:3099-3108 (1973)].

With `CC[C@H](C)[C@H](NC(=O)[C@H](C)NC(=O)[C@H](Cc1c[nH]cn1)NC(=O)[C@@H]1CCCN1C(=O)CNC(=O)[C@H](CC(C)C)NC(=O)[C@H](CC(C)C)NC(=O)[C@H](Cc1ccc(O)cc1)NC(=O)CNC(=O)[C@H](C)NC(=O)[C@H](CO)NC(=O)[C@H](CC(N)=O)NC(=O)[C@H](CC(C)C)NC(=O)[C@@H](NC(=O)[C@H](Cc1c[nH]c2ccccc12)NC(=O)CN)[C@@H](C)O)C(=O)N[C@@H](CC(=O)O)C(=O)N[C@@H](CC(N)=O)C(=O)N[C@@H](Cc1c[nH]cn1)C(=O)N[C@@H](CCCNC(=N)N)C(=O)N[C@@H](CO)C(=O)N[C@@H](Cc1ccccc1)C(=O)N[C@@H](CO)C(=O)N[C@@H](CC(=O)O)C(=O)N[C@@H](CCCCN)C(=O)N[C@@H](Cc1c[nH]cn1)C(=O)NCC(=O)N[C@@H](CC(C)C)C(=O)N[C@H](C(N)=O)[C@@H](C)O` [rat galanin] the “competitive inhibition of the labeled galanin” value (FIG. 2, 125I-porcine galanin binding to rat GalR3 membranes) was “competitive inhibitors”.

In the case of `CC(C)C[C@H](NC(=O)[C@H](CC(C)C)NC(=O)[C@@H](Cc1c[nH]c2ccccc12)NC(=O)[C@H](Cc1ccccc1)NC(=O)[C@@H](Cc1c[nH]c2ccccc12)NC(=O)[C@H](CCC(N)=O)NC(=O)[C@H](CCC(N)=O)NC(=O)[C@@H]1CCCN1C(=O)[C@H](CCCCN)NC(=O)[C@@H]1CCCN1C(=O)[C@@H](CCCNC(=N)N)NC(=O)[C@@H]1CCCN1C(=O)CNC(=O)[C@H](CC(C)C)NC(=O)[C@H](CC(C)C)NC(=O)[C@H](Cc1ccc(O)cc1)NC(=O)CNC(=O)[C@H](C)NC(=O)[C@H](CO)NC(=O)[C@H](CC(N)=O)NC(=O)[C@H](CC(C)C)NC(=O)[C@@H](NC(=O)[C@H](Cc1c[nH]c2ccccc12)NC(=O)CN)[C@@H](C)O)C(N)=O` [chimeric galanin peptide C7] (H-GWTLNSAGYLLGP[dR]PKPQQ[dW]F[dW]LL-NH2), the Ki is reported as 1.4 nM.

`CC[C@H](C)[C@H](NC(=O)[C@H](C)NC(=O)[C@H](Cc1c[nH]cn1)NC(=O)[C@@H]1CCCN1C(=O)CNC(=O)[C@H](CC(C)C)NC(=O)[C@H](CC(C)C)NC(=O)[C@H](Cc1ccc(O)cc1)NC(=O)CNC(=O)[C@H](C)NC(=O)[C@H](CO)NC(=O)[C@H](CC(N)=O)NC(=O)[C@H](CC(C)C)NC(=O)[C@@H](N)[C@@H](C)O)C(=O)N[C@@H](CC(=O)O)C(=O)N[C@@H](CC(N)=O)C(=O)N[C@@H](Cc1c[nH]cn1)C(=O)N[C@@H](CCCNC(=N)N)C(=O)N[C@@H](CO)C(=O)N[C@@H](Cc1ccccc1)C(=O)N[C@@H](CO)C(=O)N[C@@H](CC(=O)O)C(=O)N[C@@H](CCCCN)C(=O)N[C@@H](Cc1c[nH]cn1)C(=O)NCC(=O)N[C@@H](CC(C)C)C(=O)N[C@H](C(N)=O)[C@@H](C)O` [galanin(3-29)] gave a Ki greater than 1000 nM.
